Results on eleven compounds are retold here after PubChem BioAssay (NCATS).

The nature of test [1]: NCATS anti-infectives library activity on the primary C. elegans qHTS viability assay (AID 1745855). The following applies: C. elegans worm area imaging. In outline: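 Viability read-out is GFP fluorescence of PE254-GFP-FLuc C. elegans, measured by laser cytometry (488 nm) at day 0, 3 and 7. Ten L1 worms per well were incubated 7 days at 21 °C with compounds and bacterial capsules in S medium.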
(In general: qHTS replaces the single test concentration by a dilution series.)

Test [2] is described as follows: qHTS drug screen for cell cycle checkpoint inhibitors in PARPi-resistant BRCA-mutant ovarian cancer cell lines. (AID 1963452). The following applies: PEO1/OlaR viability, CellTiter-Glo luminescence, 96 h. Put shortly:
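PEO1, PEO4 and PEO1/OlaR ovarian cancer cells, 600 per well, exposed 96 h at 37C to a dilution series. Viability read by CellTiter-Glo luminescence, normalized to DMSO and empty wells; activity summarized as Z-AUC.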

Test [3] is described as follows: qHTS for identification of novel therapeutic agents for treatment of microphthalmiaassociated transcription factor (MiT) renal cell carcinoma (RCC) (AID 1963991). The following applies: CellTiter-Glo, 48 h; for z-score: stronger effect = lower value. In outline: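 Three TFE3-fusion RCC cell lines (UOK109, UOK124, UOK145), 500 cells/well, were exposed to the 1912-compound MIPE 4.0 library for 48 hours at 37 C. Viability was read by CellTiter-Glo luminescence, normalised to DMSO (100%) and empty wells (0%), with 11-concentration curve fits.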

Where [4] appears, read: day 7, measured here: worm number.
The mark [5] stands for this setting: day 7, measured here: worm area, day 3.
Setting [6] is: day 7, measured here: worm number, day 3.
Where [7] appears, read: measured here: PEO1 parental viability.
Where [8] appears, read: TFE3-RCC viability, measured here: UOK124 cell viability.
[9] abbreviates: TFE3-RCC viability, measured here: UOK145 cell viability.
Setting [10] is: TFE3-RCC UOK109 viability, measured here: UOK109 Z-AUC.
Setting [11] is: TFE3-RCC viability, measured here: UOK124 Z-AUC.
The mark [12] stands for this setting: TFE3-RCC viability, measured here: UOK145 Z-AUC.

Some of the results follow. Shown are side measurements of this screen, not its main read-out; they come without a call. For some assays here: The list favours compounds with an active or inconclusive main result. Potencies come from curve fits of mixed quality, noted in brackets.

Broadly, the AC50 is the concentration at which the activity in the assay is half-maximal.

Consider `CC(C)C[C@H](NC(=O)[C@H](Cc1ccccc1)NC(=O)c1cnccn1)B(O)O`, for which the AC50 in test [1] (setting [4]) was 1.15 µM [falling, partial curve, poor fit]; in test [1] (setting [5]), 11.5 µM [falling, partial curve]; in test [1] (setting [6]), 0.0816 µM [falling, full curve, poor fit]; in test [2] (setting [7]) it was 0.0087 µM [falling, full curve]; in test [2] (measured here: PEO4 viability), 0.0039 µM [falling, full curve]; in test [3] (setting [8]), 0.059 µM [falling, full curve]. Moreover, the AC50 in test [3] (setting [9]) was 0.0166 µM [falling, full curve].

Take `COc1c(C)c2c(c(O)c1C/C=C(\C)CCC(=O)OCCN1CCOCC1)C(=O)OC2`: the AC50 in test [1] (setting [4]) was 4.59 µM [falling, partial curve, poor fit]; in test [1] (setting [6]), 10.3 µM [falling, partial curve, poor fit]; in test [2] (setting [7]), 5.49 µM [falling, partial curve]; in test [2] (measured here: PEO4 viability), 7.76 µM [falling, partial curve].

With `C[C@]1(c2nc3c(C(N)=O)cccc3[nH]2)CCCN1`, in test [1] (setting [4]), the AC50 was 20.5 µM [rising, single point]. Besides, the z-score in test [3] (setting [10]) was -0.286; in test [3] (setting [11]) it was 0.505; in test [3] (setting [12]), -0.0624.

As for `Cc1cnc(-c2ccccc2C(C)C)nc1NCc1ccc(-n2ccnn2)cc1`, the AC50 in test [1] (setting [4]) was 29 µM [falling, single point]; in test [1] (setting [6]), 25.8 µM [falling, single point]; in test [2] (setting [7]), 19.5 µM [falling, single point].

On to `O=C(O)C[C@H](O)C[C@H](O)/C=C/c1c(C2CC2)nc2ccccc2c1-c1ccc(F)cc1`, for which the AC50 in test [1] (setting [6]) was 10.3 µM [falling, partial curve, poor fit]; in test [2] (setting [7]) it was 1.74 µM [falling, full curve]; in test [2] (measured here: PEO4 viability) it was 0.616 µM [falling, full curve].

With `CC(C)(C)OC(=O)Nc1ccc(-c2cc(C(=O)NCCCCCCC(=O)NO)no2)cc1`, the AC50 was 25.8 µM [falling, single point] in test [1] (setting [5]); 3.89 µM [falling, full curve] in test [2] (setting [7]); 4.36 µM [falling, partial curve] in test [2] (measured here: PEO4 viability); 11.8 µM [falling, partial curve] in test [3] (setting [8]); 14.8 µM [falling, partial curve] in test [3] (setting [9]). In addition, the z-score is -0.828 in test [3] (setting [10]), -0.933 in test [3] (setting [11]) and -0.219 in test [3] (setting [12]).

As to `NC(=O)c1cccc2cn(-c3ccc([C@@H]4CCCNC4)cc3)nc12`, the AC50 in test [1] (setting [5]) was 0.0578 µM [falling, full curve, poor fit]; in test [2] (setting [7]), 7.76 µM [falling, partial curve]; in test [2] (measured here: PEO4 viability), 7.76 µM [falling, partial curve, poor fit]; in test [3] (setting [8]) it was 23.5 µM [falling, partial curve, poor fit]; in test [3] (setting [9]), 20.9 µM [falling, partial curve, poor fit]. In addition, the z-score was -0.393 in test [3] (setting [10]), 0.611 in test [3] (setting [11]) and -0.156 in test [3] (setting [12]).

For the compound `CC(C)C[C@H](NC(=O)CNC(=O)c1cc(Cl)ccc1Cl)B(O)O`, the AC50 in test [1] (setting [4]) is 0.728 µM [falling, full curve, poor fit]; in test [1] (setting [5]), 2.3 µM [falling, partial curve, poor fit]; in test [1] (setting [6]), 7.27 µM [falling, partial curve, poor fit]; in test [3] (setting [8]), 0.59 µM [falling, full curve]; in test [3] (setting [9]), 0.132 µM [falling, full curve].

As to `CC[C@@]1([C@@H]2O[C@@H]([C@H]3O[C@@](O)(CO)[C@H](C)C[C@@H]3C)C[C@@H]2C)CC[C@H]([C@]2(C)CCC3(C[C@H](O)[C@@H](C)[C@@H]([C@@H](C)[C@@H](OC)[C@H](C)C(=O)O)O3)O2)O1` (some centres undefined), the AC50 was 0.0015 µM [falling, full curve, poor fit] in test [1] (setting [5]); 0.0578 µM [falling, partial curve, poor fit] in test [1] (setting [6]); 0.0849 µM [falling, full curve] in test [2] (setting [7]); 0.301 µM [falling, full curve] in test [2] (measured here: PEO4 viability).

For the compound `CCOC(=O)c1c(CSc2ccccc2)n(C)c2cc(Br)c(O)c(CN(C)C)c12`, the AC50 was 25.8 µM [falling, single point] in test [1] (setting [4]); 20.5 µM [falling, single point] in test [1] (setting [5]); 45.9 µM [falling, single point] in test [1] (setting [6]); 24.5 µM [falling, single point] in test [2] (setting [7]); 24.5 µM [falling, single point] in test [2] (measured here: PEO4 viability); 20.9 µM [falling, partial curve] in test [3] (setting [8]). Besides, the z-score in test [3] (setting [10]) is 0.726; in test [3] (setting [11]), 0.34; in test [3] (setting [12]), -0.267.

`Cc1noc2c1-c1ccccc1C(c1ccc(Cl)cc1)=N[C@H]2CC(N)=O`: the AC50 is 1.03 µM [falling, partial curve, poor fit] in test [1] (setting [4]); 2.9 µM [falling, full curve, poor fit] in test [1] (setting [5]); 4.36 µM [falling, partial curve] in test [2] (setting [7]); 1.38 µM [falling, full curve] in test [2] (measured here: PEO4 viability).
